No constants are given. Whether binding was seen depends on the method and setting. Binding seen in cells or lysates may run through a third protein. Some results given as binding are weak or reduced against the parent protein; the word gives no strength. Values belong to the molecule of their own block, whether it stands above or below them.
What was measured:
[1] = molecular target: T1, Vitamin D Receptor (VDR) (human (endogenous in papillary thyroid cancer tissue)) (UniProt P11473); assay: co-IP; reverse immunoprecipitation with VDR antibody (rat, Invitrogen) as bait from precleared RIPA lysates of fresh papillary thyroid cancer tissue, Protein A/G magnetic beads, 4 °C; supernatant and beads blotted
T1 sequence: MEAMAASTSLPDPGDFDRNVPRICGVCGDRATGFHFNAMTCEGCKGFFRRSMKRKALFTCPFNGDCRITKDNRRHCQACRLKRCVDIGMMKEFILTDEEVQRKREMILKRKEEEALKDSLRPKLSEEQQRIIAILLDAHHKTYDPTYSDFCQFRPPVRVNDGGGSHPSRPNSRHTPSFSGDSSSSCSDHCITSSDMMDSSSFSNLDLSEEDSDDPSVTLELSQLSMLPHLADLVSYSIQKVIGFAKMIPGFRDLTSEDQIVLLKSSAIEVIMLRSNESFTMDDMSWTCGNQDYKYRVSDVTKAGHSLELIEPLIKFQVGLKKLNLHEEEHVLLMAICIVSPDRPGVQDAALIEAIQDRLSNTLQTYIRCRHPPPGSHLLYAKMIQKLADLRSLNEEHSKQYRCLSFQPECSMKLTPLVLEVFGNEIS

Amino acid sequences for entries named in this document (tags omitted).
UniProt Q9NR12: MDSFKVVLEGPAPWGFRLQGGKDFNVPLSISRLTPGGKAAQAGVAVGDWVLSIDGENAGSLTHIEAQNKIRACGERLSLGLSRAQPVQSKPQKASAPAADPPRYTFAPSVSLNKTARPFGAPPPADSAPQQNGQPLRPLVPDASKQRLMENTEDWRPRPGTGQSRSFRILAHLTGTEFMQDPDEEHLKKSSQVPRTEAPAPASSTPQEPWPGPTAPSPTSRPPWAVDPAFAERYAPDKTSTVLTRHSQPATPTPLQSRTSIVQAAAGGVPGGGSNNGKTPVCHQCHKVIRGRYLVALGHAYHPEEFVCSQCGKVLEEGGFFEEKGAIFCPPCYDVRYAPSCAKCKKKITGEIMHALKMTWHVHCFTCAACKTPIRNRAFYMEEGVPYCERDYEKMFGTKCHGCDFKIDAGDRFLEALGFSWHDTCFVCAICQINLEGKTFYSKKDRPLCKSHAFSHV
UniProt Q00987: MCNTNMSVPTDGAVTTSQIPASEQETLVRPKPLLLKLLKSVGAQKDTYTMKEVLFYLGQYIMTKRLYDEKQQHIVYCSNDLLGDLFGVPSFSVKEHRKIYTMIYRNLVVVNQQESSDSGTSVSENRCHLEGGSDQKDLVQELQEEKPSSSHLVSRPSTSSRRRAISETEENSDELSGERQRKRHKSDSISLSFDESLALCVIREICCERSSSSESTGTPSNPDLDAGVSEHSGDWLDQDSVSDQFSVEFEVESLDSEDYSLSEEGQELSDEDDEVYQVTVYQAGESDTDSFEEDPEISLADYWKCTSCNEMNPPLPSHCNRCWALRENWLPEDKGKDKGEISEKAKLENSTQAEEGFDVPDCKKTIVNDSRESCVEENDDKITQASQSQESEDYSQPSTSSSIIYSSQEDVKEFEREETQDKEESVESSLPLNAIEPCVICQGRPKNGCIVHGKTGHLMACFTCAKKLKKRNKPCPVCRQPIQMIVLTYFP

[2] = molecular target: Enigma protein, encoded by the PDLIM7 gene (human (endogenous in papillary thyroid cancer tissue)) (UniProt Q9NR12); assay: co-IP; immunoprecipitation with Enigma/PDLIM7 antibody (rabbit, Proteintech) as bait from precleared RIPA lysates of fresh papillary thyroid cancer tissue (patients #1-5), Protein A/G magnetic beads, 4 °C; supernatant and beads blotted

binding [1]: binds
Molecule: Enigma protein, encoded by the PDLIM7 gene (from UniProt Q9NR12 1-457)

binding [2]: binds
Molecule: Murine Double Minute 2 (MDM2) (from UniProt Q00987 1-491)

binding [1]: binds
B1: vitamin D binding protein (DBP) (protein, UniProt P02774 17-474)
chain: LERGRDYEKNKVCKEFSHLGKEDFTSLSLVLYSRKFPSGTFEQVSQLVKEVVSLTEACCAEGADPDCYDTRTSALSAKSCESNSPFPVHPGTAECCTKEGLERKLCMAALKHQPQEFPTYVEPTNDEICEAFRKDPKEYANQFMWEYSTNYGQAPLSLLVSYTKSYLSMVGSCCTSASPTVCFLKERLQLKHLSLLTTLSNRVCSQYAAYGEKKSRLSNLIKLAQKVPTADLEDVLPLAEDITNILSKCCESASEDCMAKELPEHTVKLCDNLSTKNSKFEDCCQEKTAMDVFVCTYFMPAAQLPELPDVELPTNKDVCDPGNTKVMDKYTFELSRRTHLPEVFLSKVLEPTLKSLGECCDVEDSTTCFNAKGPLLKKELSSFIDKGQELCADYSENTFTEYKKKLAERLKAKLPDATPTELAKLVNKHSDFASNCCSINSPPLYCDSEIDAELKNIL
